Laboratory results taken from PMC4264851.
These are yes or no findings as the source states them, for the method shown. In cells and extracts the contact can be indirect. A yes stands for co-enrichment or nearness to the bait. Other partners may have been found. For some assays here: Where a sequence is shown, tags or fusion partners need not be part of it. One block for each binder: values may come before it.

How the values were obtained:
Utp6-HA (S. cerevisiae) [1] = molecular target: T1, Utp6-HA (S. cerevisiae) (UniProt Q02354); test: affinity purification with mass spectrometry; bacmid K1991 (six UTP B proteins); two-step: IgG Sepharose/TEV eluate (Pwp2-TAP) purified again on anti-HA affinity matrix with Utp6-HA as bait, HA peptide elution; SDS-PAGE, Coomassie, MS of bands
T1 sequence: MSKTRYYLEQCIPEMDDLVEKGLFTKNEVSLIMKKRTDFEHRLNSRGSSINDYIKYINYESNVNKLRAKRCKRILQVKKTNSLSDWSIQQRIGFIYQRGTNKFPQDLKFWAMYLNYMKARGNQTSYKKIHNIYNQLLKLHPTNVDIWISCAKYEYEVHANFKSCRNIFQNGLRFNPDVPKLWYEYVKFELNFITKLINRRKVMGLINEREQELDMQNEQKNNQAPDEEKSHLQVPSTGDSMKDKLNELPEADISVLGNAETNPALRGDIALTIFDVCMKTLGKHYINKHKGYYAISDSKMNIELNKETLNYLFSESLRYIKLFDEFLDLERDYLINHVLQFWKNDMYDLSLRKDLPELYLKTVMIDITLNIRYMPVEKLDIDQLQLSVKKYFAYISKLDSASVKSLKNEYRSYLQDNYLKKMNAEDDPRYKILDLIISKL

[2] = molecular target: T2, Utp12-FLAG (S. cerevisiae) (UniProt Q12220); test: affinity purification with mass spectrometry; only Utp12-FLAG and Utp13 co-expressed in SF21 cells (bacmid K1978); one-step anti-FLAG purification, FLAG peptide elution; SDS-PAGE and MS
T2 sequence: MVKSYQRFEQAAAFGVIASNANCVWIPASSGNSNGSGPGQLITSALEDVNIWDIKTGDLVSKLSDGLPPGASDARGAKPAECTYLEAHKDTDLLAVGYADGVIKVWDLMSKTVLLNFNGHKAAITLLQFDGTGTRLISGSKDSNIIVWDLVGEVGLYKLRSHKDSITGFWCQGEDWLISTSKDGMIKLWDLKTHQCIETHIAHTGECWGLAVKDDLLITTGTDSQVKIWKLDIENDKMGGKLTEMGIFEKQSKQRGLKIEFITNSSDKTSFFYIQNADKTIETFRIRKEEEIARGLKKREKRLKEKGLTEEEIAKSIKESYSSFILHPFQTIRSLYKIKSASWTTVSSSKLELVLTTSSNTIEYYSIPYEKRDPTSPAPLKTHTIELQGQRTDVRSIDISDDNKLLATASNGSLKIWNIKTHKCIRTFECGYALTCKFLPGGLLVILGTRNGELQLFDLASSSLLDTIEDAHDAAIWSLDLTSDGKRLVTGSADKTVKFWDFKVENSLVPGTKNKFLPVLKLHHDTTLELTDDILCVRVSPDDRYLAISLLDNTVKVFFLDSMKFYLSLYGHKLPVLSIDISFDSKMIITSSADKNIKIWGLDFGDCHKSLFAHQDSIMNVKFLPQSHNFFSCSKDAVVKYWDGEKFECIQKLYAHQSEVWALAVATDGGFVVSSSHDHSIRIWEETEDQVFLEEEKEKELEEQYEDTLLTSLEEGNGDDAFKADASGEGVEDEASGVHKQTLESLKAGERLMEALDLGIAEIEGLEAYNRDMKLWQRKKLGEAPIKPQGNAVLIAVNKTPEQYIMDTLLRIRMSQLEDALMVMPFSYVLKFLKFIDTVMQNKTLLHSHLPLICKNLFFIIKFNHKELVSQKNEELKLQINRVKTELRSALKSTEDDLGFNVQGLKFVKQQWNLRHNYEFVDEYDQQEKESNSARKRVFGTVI

Pwp2-TAP (S. cerevisiae) [3] = molecular target: T3, Pwp2-TAP (S. cerevisiae) (UniProt P25635); test: affinity purification with mass spectrometry; Pwp2-TAP, Utp6-HA, Utp12-FLAG, Utp13, Utp18 and Utp21 co-expressed in SF21 cells (bacmid K1991); one-step, bait Pwp2-TAP on IgG Sepharose, TEV elution; SDS-PAGE, Coomassie, MS of bands
T3 sequence: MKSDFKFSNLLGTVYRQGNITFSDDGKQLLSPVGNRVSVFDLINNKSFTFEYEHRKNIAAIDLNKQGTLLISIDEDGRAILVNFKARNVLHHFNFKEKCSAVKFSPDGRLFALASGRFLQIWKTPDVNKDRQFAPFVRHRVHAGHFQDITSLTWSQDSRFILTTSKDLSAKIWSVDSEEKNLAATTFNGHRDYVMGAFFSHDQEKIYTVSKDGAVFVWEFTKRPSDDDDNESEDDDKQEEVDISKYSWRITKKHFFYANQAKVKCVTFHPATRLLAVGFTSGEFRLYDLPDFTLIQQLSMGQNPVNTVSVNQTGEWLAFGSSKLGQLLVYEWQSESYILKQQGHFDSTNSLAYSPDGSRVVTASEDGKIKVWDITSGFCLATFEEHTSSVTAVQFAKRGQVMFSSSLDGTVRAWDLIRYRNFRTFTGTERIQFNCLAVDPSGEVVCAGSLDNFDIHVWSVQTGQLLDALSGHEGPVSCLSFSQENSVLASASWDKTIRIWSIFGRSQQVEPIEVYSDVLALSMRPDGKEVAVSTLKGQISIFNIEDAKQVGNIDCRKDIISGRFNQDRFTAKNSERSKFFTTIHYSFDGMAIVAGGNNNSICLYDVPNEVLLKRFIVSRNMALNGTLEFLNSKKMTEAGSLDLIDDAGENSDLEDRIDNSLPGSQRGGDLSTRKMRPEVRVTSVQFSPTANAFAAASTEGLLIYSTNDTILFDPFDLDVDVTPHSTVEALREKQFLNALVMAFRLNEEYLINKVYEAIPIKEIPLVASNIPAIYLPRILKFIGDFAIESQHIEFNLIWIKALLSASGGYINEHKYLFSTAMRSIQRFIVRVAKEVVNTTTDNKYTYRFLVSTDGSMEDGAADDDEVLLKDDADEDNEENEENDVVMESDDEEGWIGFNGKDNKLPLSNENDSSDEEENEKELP

[4] = molecular target: T2, Utp12-FLAG (S. cerevisiae); test: affinity purification with mass spectrometry; Pwp2, Utp6-HA, Utp12-FLAG, Utp13, Utp18 and Utp21 co-expressed in SF21 cells (bacmid K1992); one-step, bait Utp12-FLAG on anti-FLAG affinity matrix, FLAG peptide elution; SDS-PAGE, Coomassie, MS of bands
Utp6-HA (S. cerevisiae) [5] = molecular target: T1, Utp6-HA (S. cerevisiae); test: affinity purification with mass spectrometry; bacmid K1992 (six UTP B proteins); two-step: anti-FLAG eluate (Utp12-FLAG) purified again on anti-HA affinity matrix with Utp6-HA as bait, HA peptide elution; SDS-PAGE, Coomassie, MS of bands
Pwp2-TAP (S. cerevisiae) [6] = molecular target: T3, Pwp2-TAP (S. cerevisiae); test: affinity purification with mass spectrometry; only Pwp2-TAP, Utp6-HA, Utp18 and Utp21 co-expressed in SF21 cells (bacmid K1987), without Utp12 and Utp13; one-step, bait Pwp2-TAP on IgG-coupled beads, TEV elution; SDS-PAGE and MS

binding (Utp6-HA (S. cerevisiae) [1]): binds
binding [2]: binds
binding (Pwp2-TAP (S. cerevisiae) [3]): binds
binding [4]: binds
binding (Utp6-HA (S. cerevisiae) [5]): binds
B1: Utp13 (protein, UniProt Q05946 1-817)
chain: MDLKTSYKGISLNPIYAGSSAVATVSENGKILATPVLDEINIIDLTPGSRKILHKISNEDEQEITALKLTPDGQYLTYVSQAQLLKIFHLKTGKVVRSMKISSPSYILDADSTSTLLAVGGTDGSIIVVDIENGYITHSFKGHGGTISSLKFYGQLNSKIWLLASGDTNGMVKVWDLVKRKCLHTLQEHTSAVRGLDIIEVPDNDEPSLNLLSGGRDDIINLWDFNMKKKCKLLKTLPVNQQVESCGFLKDGDGKRIIYTAGGDAIFQLIDSESGSVLKRTNKPIEELFIIGVLPILSNSQMFLVLSDQTLQLINVEEDLKNDEDTIQVTSSIAGNHGIIADMRYVGPELNKLALATNSPSLRIIPVPDLSGPEASLPLDVEIYEGHEDLLNSLDATEDGLWIATASKDNTAIVWRYNENSCKFDIYAKYIGHSAAVTAVGLPNIVSKGYPEFLLTASNDLTIKKWIIPKPTASMDVQIIKVSEYTRHAHEKDINALSVSPNDSIFATASYDKTCKIWNLENGELEATLANHKRGLWDVSFCQYDKLLATSSGDKTVKIWSLDTFSVMKTLEGHTNAVQRCSFINKQKQLISCGADGLIKIWDCSSGECLKTLDGHNNRLWALSTMNDGDMIVSADADGVFQFWKDCTEQEIEEEQEKAKLQVEQEQSLQNYMSKGDWTNAFLLAMTLDHPMRLFNVLKRALGESRSRQDTEEGKIEVIFNEELDQAISILNDEQLILLMKRCRDWNTNAKTHTIAQRTIRCILMHHNIAKLSEIPGMVKIVDAIIPYTQRHFTRVDNLVEQSYILDYALVEMDKLF

binding (Pwp2-TAP (S. cerevisiae) [6]): binds
binding (Pwp2-TAP (S. cerevisiae) [3]): binds
binding [4]: binds
B2: Utp21 (protein, UniProt Q06078 1-939)
chain: MSIDLKKRKVEEDVRSRGKNSKIFSPFRIIGNVSNGVPFATGTLGSTFYIVTCVGKTFQIYDANTLHLLFVSEKETPSSIVALSAHFHYVYAAYENKVGIYKRGIEEHLLELETDANVEHLCIFGDYLCASTDDNSIFIYKKSDPQDKYPSEFYTKLTVTEIQGGEIVSLQHLATYLNKLTVVTKSNVLLFNVRTGKLVFTSNEFPDQITTAEPAPVLDIIALGTVTGEVIMFNMRKGKRIRTIKIPQSRISSLSFRTDGSSHLSVGTSSGDLIFYDLDRRSRIHVLKNIHRESYGGVTQATFLNGQPIIVTSGGDNSLKEYVFDPSLSQGSGDVVVQPPRYLRSRGGHSQPPSYIAFADSQSHFMLSASKDRSLWSFSLRKDAQSQEMSQRLHKKQDGGRVGGSTIKSKFPEIVALAIENARIGEWENIITAHKDEKFARTWDMRNKRVGRWTFDTTDDGFVKSVAMSQCGNFGFIGSSNGSITIYNMQSGILRKKYKLHKRAVTGISLDGMNRKMVSCGLDGIVGFYDFNKSTLLGKLKLDAPITAMVYHRSSDLFALALDDLSIVVIDAVTQRVVRQLWGHSNRITAFDFSPEGRWIVSASLDSTIRTWDLPTGGCIDGIIVDNVATNVKFSPNGDLLATTHVTGNGICIWTNRAQFKTVSTRTIDESEFARMALPSTSVRGNDSMLSGALESNGGEDLNDIDFNTYTSLEQIDKELLTLSIGPRSKMNTLLHLDVIRKRSKPKEAPKKSEKLPFFLQLSGEKVGDEASVREGIAHETPEEIHRRDQEAQKKLDAEEQMNKFKVTGRLGFESHFTKQLREGSQSKDYSSLLATLINFSPAAVDLEIRSLNSFEPFDEIVWFIDALTQGLKSNKNFELYETFMSLLFKAHGDVIHANNKNQDIASALQNWEDVHKKEDRLDDLVKFCMGVAAFVTTA
